Data published in publication PMC7427805.
Results are given in words; binding and its absence hold for the method and conditions named. In cells and extracts the contact can be indirect. Some entries that bind do so weakly or less than the wild type.

Amino acid sequences for entries named in this document (tags omitted).
UniProt Q9Y6G9: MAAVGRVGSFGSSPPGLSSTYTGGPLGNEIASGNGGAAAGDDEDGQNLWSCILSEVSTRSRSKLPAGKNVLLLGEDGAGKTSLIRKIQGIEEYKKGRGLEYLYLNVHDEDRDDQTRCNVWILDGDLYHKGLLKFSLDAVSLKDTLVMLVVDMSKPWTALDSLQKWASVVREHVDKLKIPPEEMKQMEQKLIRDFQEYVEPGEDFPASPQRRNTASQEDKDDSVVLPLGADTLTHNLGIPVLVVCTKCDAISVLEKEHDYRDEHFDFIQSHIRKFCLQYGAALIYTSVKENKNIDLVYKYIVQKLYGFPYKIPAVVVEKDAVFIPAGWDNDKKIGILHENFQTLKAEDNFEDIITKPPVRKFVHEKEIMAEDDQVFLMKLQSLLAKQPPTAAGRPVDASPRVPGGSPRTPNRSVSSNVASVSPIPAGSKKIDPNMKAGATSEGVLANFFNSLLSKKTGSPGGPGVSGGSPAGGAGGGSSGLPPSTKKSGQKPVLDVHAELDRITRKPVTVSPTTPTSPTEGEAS
UniProt Q9NP97: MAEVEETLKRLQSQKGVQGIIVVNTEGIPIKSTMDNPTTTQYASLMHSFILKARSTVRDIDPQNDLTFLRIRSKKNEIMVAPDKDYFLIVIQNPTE
UniProt Q9UJ70: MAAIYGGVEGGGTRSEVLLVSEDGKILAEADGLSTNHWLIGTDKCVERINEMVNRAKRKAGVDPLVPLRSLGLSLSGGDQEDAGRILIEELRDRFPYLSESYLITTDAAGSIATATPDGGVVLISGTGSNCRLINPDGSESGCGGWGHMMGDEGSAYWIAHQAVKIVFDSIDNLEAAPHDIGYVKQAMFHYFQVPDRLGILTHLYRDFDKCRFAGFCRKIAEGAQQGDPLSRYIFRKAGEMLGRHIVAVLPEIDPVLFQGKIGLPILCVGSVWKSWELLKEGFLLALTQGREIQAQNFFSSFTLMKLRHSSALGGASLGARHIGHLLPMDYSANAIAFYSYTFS

Columns and labels:
Test in all cases: pull-down; His-tagged bait expressed in HEK293T cells for 48 h; lysate (25 mM Tris, 150 mM NaCl, 1.0 mM EDTA, 1% NP-40, 5% glycerol, pH 7.4) bound to Ni-NTA magnetic silica resin, washed four times, eluted with imidazole, immunoblotted; called co-immunoprecipitation in the legend; in Fig. 5C cells were also co-transfected with pQ74 and pDsRed2 or pDsRed2-NAGK
[1] = biological target: His-tagged DYNC1LI1 (pENTER-CMV-DYNC1LI1) (UniProt Q9Y6G9)
[2] = biological target: His-tagged DYNLRB1 (pENTER-CMV-DYNLRB1) (UniProt Q9NP97)
[3] = biological target: His-tagged NAGK (N-acetylglucosamine kinase; pENTER-CMV-NAGK) (UniProt Q9UJ70)

binding [1] | binding [2] | binding [3] | Substance
binds |  |  | DsRed2-NAGK (pDsRed2-tagged wild-type NAGK) (from UniProt Q9UJ70 1-344)
binds | binds |  | NAGK (N-acetylglucosamine kinase) of HEK293T cells (from UniProt Q9UJ70 1-344)
 |  | binds | dynein light chain roadblock type 1 (DYNLRB1), endogenous (from UniProt Q9NP97 1-96)
 |  | binds | dynein light intermediate chain 1 (DYNC1LI1), endogenous (from UniProt Q9Y6G9 1-523)
